The assay can be described thus: qHTS Assay for Lipid Storage Modulators in Drosophila S3 Cells.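 For cell number change: cells counted by Cell Tracker Red CMTPX staining in the red channel.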 The settings on record: BODIPY lipid droplet fluorescence, 18-24 h; for cell number change: measured here: cell count max response, cells fed with added oleic acid. In outline: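 Drosophila S3 cells got compounds at several concentrations plus oleic acid (400 uM solution). Laser-scanning cytometry with 488 nm excitation read lipid droplets at 500-530 nm and cells at 575-640 nm. Percent activity was relative to 20 uM Triacsin C.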

Where [1] appears, read: measured here: lipid fluorescence (Fed channel) AC50, cells fed with added oleic acid.
Setting [2] is: measured here: cell number channel AC50, cells fed with added oleic acid.

Molecules are shown by their SMILES. The list shows a part of the results. Further columns of the screen follow, without active or inactive calls. Compounds called inactive in the main read-out are mostly missing here. The note in brackets gives the kind of curve behind each potency; many fits are weak.

Consider `CC(Sc1nc2ccccc2n1C)C(=O)NC(c1ccccc1)c1ccccc1` (stereo not drawn), for which the cell number change is -19.6%. The AC50 under setting [1] was 29.1 µM [falling, single point].

Consider `CC(=O)Nc1ccc(NC(=O)COC(=O)/C=C/c2ccc3c(c2)OCO3)cc1`, for which, under setting [1], the AC50 was 29.1 µM [falling, single point].

For the compound `C=CCN1C(=O)C2C(C(=O)NC)C3(C)C=CC2(O3)C1C(=O)NCc1ccc(OC)cc1` (stereo not drawn), the cell number change is -16.6%. Further, under setting [2], the AC50 was 0.651 µM [falling, partial curve, poor fit]. In addition, under setting [1], the AC50 was 18.4 µM [falling, single point].

As for `Cc1c(C(=O)Nc2cccnc2Cl)oc2ccccc12`, the cell number change is -23.8%. Also, under setting [1], the AC50 is 0.82 µM [falling, full curve].

As for `COc1cc(/C=C(/C#N)c2nc3ccccc3[nH]2)ccc1Oc1ncccc1[N+](=O)[O-]`, the cell number change is -10.3%. Also, under setting [1], the AC50 is 32.6 µM [falling, partial curve, poor fit].

For `O=C(NCc1cccnc1)c1cccc(NS(=O)(=O)c2ccc(Br)cc2)c1`, the cell number change amounted to 85.5%. In addition, under setting [2], the AC50 was 7.31 µM [rising, partial curve].

For the compound `Cc1ccccc1-c1nnc2s/c(=C\c3ccc(N(C)C)cc3)c(=O)n12`, the cell number change was 25.2%. Moreover, the half-maximal activity concentration (AC50) under setting [2] was 2.31 µM [rising, full curve, poor fit].

As for `O=C(CSCC(=O)N1CCOCC1)Nc1nc(-c2ccccc2)cs1`, the cell number change was -26.5%. Besides, the AC50 under setting [1] was 29.1 µM [falling, single point].

Turning to `C[C@@]12CCC=C[C@H]1[C@H](c1ccc3ccccc3c1)N(Cc1ccccc1)C2=O`, the cell number change is -8.58%.

In the case of `Cc1cccc(NC(=O)c2ccc([N+](=O)[O-])s2)n1`, the cell number change is -42.2%. Besides, under setting [2], the half-maximal activity concentration (AC50) was 14.6 µM [falling, single point]. Moreover, the half-maximal activity concentration (AC50) under setting [1] was 13 µM [falling, partial curve].

Take `O=C1C(=O)N(CC(=O)N2CCCC2)c2ccccc21`: the cell number change was -32.5%. The half-maximal activity concentration (AC50) under setting [1] is 32.6 µM [falling, partial curve, poor fit].

Take `CNC(=S)N(Cc1ccc2c(c1)OCO2)C1CC(=O)N(c2ccc(F)cc2)C1=O` (stereo not drawn): the cell number change came out at 144%. The AC50 under setting [2] is 10.3 µM [rising, partial curve]. In addition, the concentration at half-maximal activity (AC50) under setting [1] was 2.31 µM [rising, partial curve].

For `CC(NC(=O)C1CCN(C(=O)[C@@H]2Cc3ccccc3CN2C(=O)OC(C)(C)C)CC1)c1ccccc1` (stereo partly drawn), the cell number change is -11.6%. In addition, under setting [1], the concentration at half-maximal activity (AC50) was 20.6 µM [falling, single point].

Take `Oc1ccc(-c2nc(-c3ccc(O)c(O)c3)cs2)cc1`: under setting [1], the concentration at half-maximal activity (AC50) is 2.31 µM [falling, full curve].

On to `CC(=O)c1ccc(OC(=O)c2ccc(-n3nc(C)cc3C)cc2)cc1`, for which the cell number change is -25.7%. Also, the AC50 under setting [2] was 3.26 µM [rising, single point]. The concentration at half-maximal activity (AC50) under setting [1] was 23.1 µM [rising, single point].

`COc1ccc(-c2noc(CCC(=O)NCCN3CCN(c4ccccc4F)CC3)n2)cc1`: the cell number change is 3.38%. In addition, under setting [2], the concentration at half-maximal activity (AC50) was 0.13 µM [rising, full curve, poor fit]. Besides, the AC50 under setting [1] was 6.51 µM [rising, partial curve].

Take `O=C(Nc1ccc(Oc2ccccc2)nc1)C1CCCCN1Cc1ccco1` (stereo not drawn): the cell number change was -42.8%. For the same compound, under setting [2], the half-maximal activity concentration (AC50) was 13 µM [falling, single point]. Also, under setting [1], the AC50 is 2.06 µM [falling, full curve, poor fit].

Turning to `COc1ccc(C(=O)C[n+]2ccccc2C)cc1`, the cell number change was determined as 17.1%. The AC50 under setting [2] was 0.731 µM [falling, single point]. Also, the AC50 under setting [1] is 4.11 µM [rising, full curve].

As for `CCCOC(=O)c1c(-c2ccc(C)cc2C)csc1NC(=O)C1C2CCC(O2)C1C(=O)O` (stereo not drawn), the cell number change is -62.2%. The concentration at half-maximal activity (AC50) under setting [2] was 36.6 µM [falling, partial curve]. Also, under setting [1], the half-maximal activity concentration (AC50) is 13 µM [falling, partial curve].

Take `CN(C(=O)c1nn(C)c2c1CS(=O)(=O)c1ccccc1-2)c1cccc(Cl)c1`: under setting [1], the half-maximal activity concentration (AC50) is 29.1 µM [rising, single point].

For `Cn1c2c(c(=O)n(C)c1=O)C(c1ccccc1Cl)C(C#N)=C(N)O2` (stereo not drawn), the AC50 under setting [1] is 29.1 µM [falling, single point].

In the case of `CC(=O)Oc1ccc(/C=N/NC(=S)Nc2ccccc2)cc1`, the cell number change is -15.2%. The half-maximal activity concentration (AC50) under setting [1] was 23.1 µM [rising, single point].

For the compound `CC(Sc1nnc2n1CCCCC2)C(=O)Nc1cccc(S(=O)(=O)N2CCOCC2)c1` (stereo not drawn), the cell number change stood at 3.9%.

`COc1cccc(COc2nc3c(c(=O)n(C)c(=O)n3C)n2C)c1`: the concentration at half-maximal activity (AC50) under setting [2] was 3.26 µM [rising, single point] and the AC50 under setting [1] is 0.58 µM [rising, single point].

With `CCn1c(CCNC(=O)c2ccc(OC)cc2)nnc1SCC(=O)Nc1ccccc1F`, the cell number change was -19.8%. The concentration at half-maximal activity (AC50) under setting [1] was 7.08 µM [falling, partial curve].

Consider `CC(C)(C)n1cnc2cc(NCc3ccc(Br)cc3)ccc21`, for which the cell number change turned out to be 9.93%. For the same compound, the AC50 under setting [2] was 2.31 µM [rising, partial curve, poor fit].

Regarding `Cc1c(C(C)NC(=O)c2cc(COc3cccc4cnccc34)on2)cnn1C` (stereo not drawn), the cell number change was -32%. In addition, under setting [2], the concentration at half-maximal activity (AC50) was 29.1 µM [falling, single point]. The AC50 under setting [1] is 16.4 µM [falling, partial curve].

With `COc1ccc(-c2noc(C3CCCN(C(=O)c4ccc(F)cc4)C3)n2)cc1` (stereo not drawn), the cell number change is 11.1%.

Regarding `COC(=O)C1=C(N)OC2=C(C(=O)CC(C)(C)C2)C1c1ccoc1` (stereo not drawn), the cell number change is -0.219%. Also, the concentration at half-maximal activity (AC50) under setting [1] is 0.461 µM [falling, full curve, poor fit].

On to `CCOc1ccccc1NC(=O)Cn1nnc(C(=O)NCc2ccc3c(c2)OCO3)c1N`, for which the cell number change turned out to be 24.2%.

Turning to `Cc1cc(C)n2nc(SCC(=O)N(CCC#N)c3ccccc3F)nc2n1`, the cell number change is -49.4%. Under setting [2], the AC50 was 5.8 µM [falling, partial curve, poor fit]. Under setting [1], the AC50 is 6.51 µM [falling, partial curve, poor fit].

On to `O=C(NC(=S)Nc1cccc(-c2ccc(CO)o2)c1)c1cccs1`, for which the cell number change is -5.15%.

On to `COc1ccc(C(=O)N2CCCC2)cc1S(=O)(=O)N1CCOCC1`, for which the AC50 under setting [1] was 4.61 µM [falling, single point].

For `CCCCOC(=O)c1ccc(NC(=S)NC(=O)c2c(Cl)cnn2CC)cc1`, the cell number change is -5.5%.

In the case of `COc1ccc(-c2cc3nc(C)n(N)c(=O)c3s2)cc1`, the cell number change was 12.4%. Further, the AC50 under setting [2] was 2.31 µM [rising, single point]. For the same compound, the half-maximal activity concentration (AC50) under setting [1] is 6.51 µM [rising, single point].

With `CCOc1cc(/C=C/c2nc3ccccc3s2)ccc1OCC(=O)N1CCOCC1`, the cell number change was 7.57%. Under setting [2], the concentration at half-maximal activity (AC50) was 6.51 µM [falling, single point].

In the case of `Cc1oc(C)c(C(=O)O)c1COc1ccc(C(=O)O)cc1`, the cell number change is 105%. For the same compound, under setting [2], the AC50 was 29.1 µM [rising, single point].

In the case of `COc1cc(C(=O)NC2CCCC(C)C2C)ccc1OCC(=O)N1CCOCC1` (stereo not drawn), the cell number change stood at 8.55%. The concentration at half-maximal activity (AC50) under setting [1] was 3.26 µM [rising, single point].

On to `O=C(c1ccc(Cl)cc1)C(Cn1cncn1)C(Sc1ccccc1)c1ccccc1` (stereo not drawn), for which the cell number change came to 4.25%. The half-maximal activity concentration (AC50) under setting [2] is 1.16 µM [rising, full curve].

For `COc1ccc(-n2cnc3scc(-c4ccc(OC)c(OC)c4)c3c2=O)cc1`, the cell number change is -18.5%. For the same compound, the AC50 under setting [1] is 5.17 µM [falling, full curve].

Turning to `N#CNC(=Nc1ccc(Cl)cc1)Oc1ccccc1`, the cell number change stood at 4.35%. Further, the AC50 under setting [2] was 0.0058 µM [falling, full curve, poor fit]. The half-maximal activity concentration (AC50) under setting [1] is 29.1 µM [falling, partial curve, poor fit].

In the case of `COc1[nH]c(/N=C/c2ccccc2)c(C#N)c1C#N`, the cell number change is -104%. Besides, the AC50 under setting [2] was 20.6 µM [falling, single point]. Besides, the AC50 under setting [1] is 23.1 µM [falling, partial curve].

Regarding `Cc1ccc2nc3n(c(=O)c2c1)-c1ccccc1C(=O)NC3Cc1ccccc1` (stereo not drawn), the cell number change is -40.9%. Moreover, under setting [2], the AC50 was 1.64 µM [falling, partial curve]. Further, the AC50 under setting [1] was 0.0146 µM [rising, full curve].

For the compound `Cc1cccc(N2CCN(C(=S)c3ccc(-c4ccccc4[N+](=O)[O-])o3)CC2)c1`, the half-maximal activity concentration (AC50) was 1.46 µM [falling, partial curve] under setting [2] and 23.1 µM [rising, partial curve] under setting [1].

Turning to `Cc1cccc(NC(=O)c2cc(-c3cc(C)ccc3O)n[nH]2)c1`, the cell number change is -19.9%. In addition, under setting [1], the concentration at half-maximal activity (AC50) is 7.31 µM [falling, partial curve].

Take `Cc1noc(C)c1C(=O)N1CCCC(Nc2ccc(C(C)C)cc2)C1` (stereo not drawn): the cell number change came out at 9.39%. Also, under setting [1], the AC50 was 6.51 µM [rising, full curve, poor fit].

On to `CCOC(=O)C(C)On1c(-c2ccc(Cl)cc2)nc2ccc([N+](=O)[O-])cc21` (stereo not drawn), for which the cell number change is -16.1%. The concentration at half-maximal activity (AC50) under setting [2] was 0.0291 µM [rising, full curve, poor fit]. The concentration at half-maximal activity (AC50) under setting [1] was 1.84 µM [rising, partial curve, poor fit].

For `Cc1oc2c(c1C(=O)c1ccccc1)C(=O)C(=O)c1ccccc1-2`, the cell number change was -78.5%. Further, the AC50 under setting [1] is 29.1 µM [falling, single point].

For `COc1cccc(OCc2cc(C(=O)N(C)CCOc3ccc(C)cc3)no2)c1`, the AC50 under setting [2] is 1.84 µM [falling, partial curve].

For `O=C(COc1ccccc1[N+](=O)[O-])Nc1cccc(C(=O)Nc2ccccc2C(=O)O)c1`, the cell number change was 22.2%.

Regarding `CC1CC(N(C(=O)c2ccco2)c2ccccc2)c2ccccc2N1C(=O)c1ccco1` (stereo not drawn), the cell number change was 10.7%. Moreover, under setting [1], the AC50 is 0.58 µM [rising, single point].

Regarding `COC(=O)c1cc(Br)c(=O)n(-c2ccccn2)c1`, the cell number change is -33.6%. Also, the half-maximal activity concentration (AC50) under setting [2] is 3.26 µM [falling, full curve, poor fit].

Regarding `O=C(NCc1ccccc1Cl)C1=CC=CN2CCS(=O)(=O)N=C12`, the cell number change is -0.648%. Further, the AC50 under setting [1] is 3.26 µM [rising, partial curve, poor fit].

As for `Cc1ccc(S(=O)(=O)N2CCOCC2)cc1C(=O)OCC(=O)NC1CC1`, the cell number change came to 1.3%. Besides, the AC50 under setting [1] is 0.92 µM [falling, full curve].

For `CCCN(CCC)S(=O)(=O)c1cccc(C(=O)Nc2ccc3c(c2)OCO3)c1`, the cell number change is -38.3%. Under setting [2], the AC50 is 29.1 µM [falling, single point]. In addition, the AC50 under setting [1] was 29.1 µM [falling, single point].

Source of the values: PubChem BioAssay AID2685 (National Center for Advancing Translational Sciences (NCATS), 2010).
